These are yes or no findings as the source states them, for the method shown. Binding seen in cells or lysates may run through a third protein. Some entries that bind do so weakly or less than the wild type.

Sequences of proteins named here, by UniProt entry; tags and fusion partners are left off. A change or cut given only in a name is not applied to a line headed by its entry.
UniProt P10961: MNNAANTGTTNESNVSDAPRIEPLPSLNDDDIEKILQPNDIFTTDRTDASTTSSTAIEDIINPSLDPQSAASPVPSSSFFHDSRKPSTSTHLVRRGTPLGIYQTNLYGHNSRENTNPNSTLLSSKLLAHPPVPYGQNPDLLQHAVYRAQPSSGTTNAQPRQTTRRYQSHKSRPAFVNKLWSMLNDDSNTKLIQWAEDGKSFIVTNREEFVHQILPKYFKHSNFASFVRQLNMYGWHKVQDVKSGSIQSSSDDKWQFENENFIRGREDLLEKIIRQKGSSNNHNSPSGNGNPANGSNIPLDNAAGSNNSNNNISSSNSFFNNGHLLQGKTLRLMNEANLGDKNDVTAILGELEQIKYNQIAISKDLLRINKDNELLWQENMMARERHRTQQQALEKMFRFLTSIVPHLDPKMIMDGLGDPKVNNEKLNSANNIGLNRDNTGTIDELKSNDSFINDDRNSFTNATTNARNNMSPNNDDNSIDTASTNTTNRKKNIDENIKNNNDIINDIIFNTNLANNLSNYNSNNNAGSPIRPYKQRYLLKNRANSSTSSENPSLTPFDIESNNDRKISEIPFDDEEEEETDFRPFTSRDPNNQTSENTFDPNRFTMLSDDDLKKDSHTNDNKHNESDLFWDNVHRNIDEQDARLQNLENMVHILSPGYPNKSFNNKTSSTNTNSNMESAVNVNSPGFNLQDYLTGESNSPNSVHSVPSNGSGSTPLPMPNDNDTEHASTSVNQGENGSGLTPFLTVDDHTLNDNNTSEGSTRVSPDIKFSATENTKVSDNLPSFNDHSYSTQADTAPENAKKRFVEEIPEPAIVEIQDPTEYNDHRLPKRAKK
UniProt P10591: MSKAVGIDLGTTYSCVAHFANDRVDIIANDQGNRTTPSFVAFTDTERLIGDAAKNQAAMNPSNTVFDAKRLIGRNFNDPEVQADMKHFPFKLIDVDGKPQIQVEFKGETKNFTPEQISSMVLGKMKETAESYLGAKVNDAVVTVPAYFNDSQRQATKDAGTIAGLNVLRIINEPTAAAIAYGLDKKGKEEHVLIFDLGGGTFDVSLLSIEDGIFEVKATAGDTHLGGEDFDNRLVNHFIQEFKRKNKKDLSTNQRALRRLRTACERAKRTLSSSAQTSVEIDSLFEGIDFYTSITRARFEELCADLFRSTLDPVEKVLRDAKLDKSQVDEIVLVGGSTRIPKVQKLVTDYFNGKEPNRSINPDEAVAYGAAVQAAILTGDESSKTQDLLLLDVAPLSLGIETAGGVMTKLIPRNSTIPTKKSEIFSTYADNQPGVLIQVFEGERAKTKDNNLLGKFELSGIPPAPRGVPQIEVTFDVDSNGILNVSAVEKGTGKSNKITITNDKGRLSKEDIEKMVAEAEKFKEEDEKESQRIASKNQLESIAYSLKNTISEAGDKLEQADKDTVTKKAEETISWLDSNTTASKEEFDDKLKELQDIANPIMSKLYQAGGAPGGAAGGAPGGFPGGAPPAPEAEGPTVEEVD

The assay concerns the target Hsf1-GFP-FLAG (S. cerevisiae) (UniProt P10961). Kind of assay: co-IP.
For the substance “Ssa1-2CD (C264D, C303D) (from UniProt P10591 1-642)”, the binding entry is listed as “no binding”. For “Ssa1-2CS (C264S, C303S) (from UniProt P10591 1-642)”, the binding entry was “binds”.

For the substance “Ssa1 (wild type) (from UniProt P10591 1-642)”, the binding entry is listed as “binds”.

(Values after doi:10.1101/2022.04.08.487668.)
